Data from PubChem BioAssay AID504648 (National Center for Advancing Translational Sciences (NCATS), 2011).
In all, about 390,000 compounds went through this assay and about 610 (0.16%) were called active. Inconclusive means that the source gave no clear call. Such entries were picked first, then a sample of the others. The call rests on the fitted dose curve; in most records, active means well fitted inhibition curve with a large enough effect; inconclusive means small, poorly fitted or top-dose-only effect, or effect the other way, or another doubt; inactive means no such curve, though single readings can be large or run the other way. A potency beside an inconclusive call is a rough fit, not a confirmed value.

test: Nrf2 qHTS screen for inhibitors: counterscreen for cytotoxicity; settings: A549 ARE-Fluc cells, CellTiter-Fluor viability, 18-24 h; series mostly up to 46 µM
Procedure, shortened: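 A549 ARE-Fluc cells in 5% FBS OPTI-MEM, 5000 cells/well, rested 2 h then exposed to compounds in concentration-response for 18-24 h at 37 °C. Viability by CellTiter-Fluor fluorescence (Ex 405/Em 525) after 30 min; luciferase luminescence (BugLite, 15 min, RT) read afterwards.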
Potency means the concentration at half of the fitted maximal effect.

Compound | Potency
CCOC(=O)c1oc2ccc(CNC3CCCCC3)c(Cl)c2c1C | inconclusive: 29.1 µM [falling, single point]
Nc1nnnn1/N=C/c1cccs1 | inconclusive: 16.4 µM [falling, single point]
CCN1CCN(c2cc(C)c3cc(NC(=O)/C=C/c4cccc(Cl)c4)ccc3n2)CC1 | inconclusive: 20.6 µM [falling, single point]
Cc1[nH]c2ccccc2c(=O)c1C(=O)/C=C/c1ccccc1 | inconclusive: 29.1 µM [falling, partial curve, poor fit]
Cc1[nH]c2ccccc2c1/C=C/c1nc2ccccc2c(=O)n1CCO | inconclusive: 20.6 µM [falling, single point]
COc1ccc(NC(=O)CC2C(=O)N(c3ccc(Cl)cc3)C(=S)N2CCc2ccncc2)cc1 (centres undefined) | inconclusive: 20.6 µM [falling, single point]
Cc1cccc(-c2nc(Cn3c(SCc4cc(C)ccc4C)nc4ccncc43)c(C)o2)c1 | inactive
Brc1ccccc1-c1nnc2sc(Cc3ccccc3)nn12 | inconclusive: 29.1 µM [activator, partial curve, poor fit]
Nc1c(C(O)(C(F)(F)F)C(F)(F)F)cc(C(O)(C(F)(F)F)C(F)(F)F)c2ccccc12 | inconclusive: 29.1 µM [falling, single point]
COc1cc(/C=C(/C#N)c2ccccc2)ccc1Oc1ccc([N+](=O)[O-])cn1 | inconclusive: 6.51 µM [falling, partial curve, poor fit]
COc1ccc(C(=O)NC(=S)NNC(=O)c2c(-c3ccccc3)noc2C)cc1 | inconclusive: 29.1 µM [falling, partial curve, poor fit]
FC(F)(F)c1cc(CCN2CCNC[C@@H]2CC2CCCCC2)cc(C(F)(F)F)c1 | inconclusive: 29.1 µM [falling, single point]
Cc1ccc(-c2nc(S(=O)(=O)c3ccc(C)cc3)c(SCC(=O)NC3CCCCC3)o2)cc1 | inactive
O=C(Cn1cnc2ccccc21)Nc1ccc(SC(F)F)cc1 | inactive
COCC(=O)Nc1nc(-c2ccccc2)c(C)s1 | inconclusive: 5.17 µM [activator, partial curve, poor fit]
CC(C)CCn1c(SCC(N)=O)nc2c1c(=O)n(C)c(=O)n2C | inactive
CC1CCN(CCOCCOc2ccc(Br)cc2Cl)CC1 | inconclusive: 18.4 µM [falling, partial curve, poor fit]
COc1ccc(CN(C(=O)Cc2c[nH]c3ccccc23)C(C(=O)NC2CCCCC2)c2ccc(C)o2)cc1 (centres undefined) | inconclusive: 13 µM [falling, partial curve]
COc1ccc(Nc2ccc([N+](=O)[O-])c3nonc23)c(OC)c1 | inconclusive: 11.6 µM [falling, partial curve, poor fit]
O=C(NCCN1CCN(c2ccccc2)CC1)c1cccc(Cl)c1 | inconclusive: 20.6 µM [activator, partial curve, poor fit]
N#Cc1nc(Cc2cccc3ccccc23)oc1NCc1ccco1 | inconclusive: 20.6 µM [activator, partial curve, poor fit]
Cc1nc2cc(C(=O)O)ccc2n1-c1ccc(C(C)C)cc1 | inactive

3 entries out of the list, arranged by length of the SMILES, low to high:
Compound | Potency
COCC(=O)Nc1nc(-c2ccccc2)c(C)s1 | inconclusive: 5.17 µM [activator, partial curve, poor fit]
COc1ccc(Nc2ccc([N+](=O)[O-])c3nonc23)c(OC)c1 | inconclusive: 11.6 µM [falling, partial curve, poor fit]
COc1ccc(C(=O)NC(=S)NNC(=O)c2c(-c3ccccc3)noc2C)cc1 | inconclusive: 29.1 µM [falling, partial curve, poor fit]

Quoted at random: 2 entries already listed, in no set order.
Compound | Potency
N#Cc1nc(Cc2cccc3ccccc23)oc1NCc1ccco1 | inconclusive: 20.6 µM [activator, partial curve, poor fit]
CCOC(=O)c1oc2ccc(CNC3CCCCC3)c(Cl)c2c1C | inconclusive: 29.1 µM [falling, single point]

Later entries

Compound | Potency
COc1ccc(CNCc2ccc([N+](=O)[O-])cc2)cc1OC | inconclusive: 29.1 µM [activator, single point]
Cc1noc(-c2ccc(C(F)(F)F)cc2)c1NC(=O)Nc1ccc(Cl)cc1 | inconclusive: 29.1 µM [falling, single point]
C=C(C)c1cccc(C(C)(C)NC(=O)Nc2ccc(OC)nc2)c1 | active: 11.6 µM
CCOC(=O)C1=C(c2ccccc2)NC(=O)NC1c1ccc(O)c(Cl)c1 (centres undefined) | inconclusive: 23.1 µM [falling, single point]
COc1ccc(/C=N\NC(=O)c2sccc2C)cc1Cn1nc(C)cc1C | inactive
CC(C)n1ncc2c(C(=O)N3CCN(c4ccccc4)CC3)cc(-c3ccccc3)nc21 | inconclusive: 20.6 µM [falling, partial curve, poor fit]
CCC(C)Nc1nc(-c2cccc(OC)c2O)nc2ccccc12 (centres undefined) | inconclusive: 18.4 µM [falling, single point]
CN1CCN(c2oc(COc3ccc(-c4ccccc4)cc3)nc2C#N)CC1 | inconclusive: 29.1 µM [falling, single point]
Cc1ccc(C(=O)N(C)CC(=O)Nc2ccc(Cl)c(C(F)(F)F)c2)cc1S(=O)(=O)N1CCCCC1 | inconclusive: 11.6 µM [falling, partial curve]
Cc1cccn2c(=O)c(/C=C(\C#N)C(=O)NCc3ccco3)c(N3CCCCC3)nc12 | inconclusive: 23.1 µM [falling, partial curve, poor fit]
O=C1CC(N2CCN(c3ccccn3)CC2)C(=O)N1CC(c1ccccc1)c1ccccc1 (centres undefined) | inactive
CCc1ccc(C(=O)COC(=O)c2cc([N+](=O)[O-])ccc2N2CCOCC2)cc1 | inconclusive: 20.6 µM [falling, partial curve, poor fit]
CC(C)=CCC/C(C)=C/CNC(=O)CC1C[C@H](C(=O)N(C(C)C)C(C)C)[C@@]2(C)c3[nH]c4ccccc4c3CCN2C1=O (some centres undefined) | inconclusive: 29.1 µM [falling, single point]
CCN(CC)c1ccc(/C=C2\SC(=O)N(C(C)C)C2=O)o1 | inconclusive: 16.4 µM [falling, partial curve, poor fit]
CCN(CC)CCn1c2ccccc2c2cnc(N=CN(C)C)c(C#N)c21 | inconclusive: 20.6 µM [falling, single point]
FC(F)Sc1ccc(N=C2NN=C(c3ccc4c(c3)OCCO4)CS2)cc1 | active: 16.4 µM
CC[n+]1c(/C=C/C=C/N(C(C)=O)c2ccccc2)sc2cc(OC)ccc21 | active: 14.6 µM
Cc1cc([N+](=O)[O-])ccc1-c1ccc(C2Nc3ccccc3C(=O)N2O)o1 (centres undefined) | inconclusive: 29.1 µM [falling, single point]
CCN(CC(=O)NCc1cccs1)C(=O)/C=C/c1cc(OC)c(OC)c(OC)c1 | inactive
Cn1c(=O)oc2cc(S(=O)(=O)N3CCCC(C(=O)NCc4ccccc4Cl)C3)ccc21 (centres undefined) | inactive
O=C1C2CCCN2C(=O)N1CCN1CCN(c2cccc(C(F)(F)F)c2)CC1 (centres undefined) | inconclusive: 8.2 µM [activator, partial curve, poor fit]
COc1ccc(CCNC(=O)c2cc3c(=O)n4ccccc4nc3n(CC3CCCO3)c2=N)cc1OC (centres undefined) | inconclusive: 32.6 µM [falling, partial curve, poor fit]

Compound | Potency
CC(C)C[C@@H](C(=O)NC1CCN(Cc2ccccc2)CC1)N1C(=O)N2CCc3c([nH]c4ccccc34)[C@@]2(C)C1=O | inactive
COc1ccc(C2CC(c3ccccc3)=NN2C(=O)c2cccs2)cc1 (centres undefined) | inconclusive: 23.1 µM [falling, partial curve, poor fit]
O=C(CN(Cc1ccccc1)C(=O)c1cc2c(s1)CCC2)NCc1cccs1 | inconclusive: 29.1 µM [falling, partial curve, poor fit]
O=C(CSc1ccccc1)N1CCc2c([nH]c3ccccc23)C1c1ccc(Cl)cc1 (centres undefined) | inconclusive: 29.1 µM [falling, partial curve, poor fit]
O=c1[nH]c(CN2CCN(c3ccccn3)CC2)nc2c(Br)cc(Br)cc12 | inconclusive: 16.4 µM [falling, single point]
Cc1c(C(=O)Nc2cc(S(=O)(=O)N3CCOCC3)ccc2N2CCOCC2)oc2ccccc12 | inconclusive: 32.6 µM [falling, partial curve, poor fit]
Cc1onc(-c2ccccc2)c1C(=O)Nc1sc2c(c1C(N)=O)CCC2 | inconclusive: 25.9 µM [falling, partial curve, poor fit]
Cc1cc(C)c(NC(=O)CSc2ccc3nnc(CCNC(=O)c4ccccc4)n3n2)c(C)c1 | inactive
CCSc1nnc(NC(=O)c2nc(S(=O)(=O)Cc3ccc(F)cc3)ncc2Cl)s1 | inactive
CN(C)CC1CCC/C(=C\c2ccc(OC(=O)c3ccc(Cl)cc3)cc2)C1=O (centres undefined) | inconclusive: 9.2 µM [falling, partial curve]
O=C(c1ccc(Cl)cc1)c1c[nH]c(C(=O)C(Cl)(Cl)Cl)c1 | inactive
Cc1cc(Cl)ccc1NC(=O)CN1CCC(C(O)(c2ccccc2)c2ccccc2)CC1 | inconclusive: 18.4 µM [falling, single point]
Cc1ccc(-n2[nH]c(C)c(/C=N/Nc3ccc([N+](=O)[O-])cc3[N+](=O)[O-])c2=O)cc1C | active: 16.4 µM
Fc1ccc(Br)cc1C1C=C(c2ccc(Br)cc2)Nc2ncnn21 (centres undefined) | inconclusive: 20.6 µM [activator, single point]
COc1ccc(CCNC(=O)CC(=O)N/N=C/c2ccc(C(=O)O)cc2)cc1OC | inactive
Cc1ccc(CN2CCN(CCCc3ccccc3)CC2CCO)cc1 (centres undefined) | inconclusive: 32.6 µM [falling, partial curve, poor fit]
Cc1oc(-c2ccccc2F)nc1CS(=O)(=O)CC(=O)N1CCN(c2ccc(Cl)cc2)CC1 | inconclusive: 18.4 µM [falling, partial curve]
Cc1ccc(NC(=S)NCc2ccccn2)cc1 | inactive
COc1ccc2[nH]c(C(=O)N3CCc4ccccc4C3)c(C)c2c1 | inactive
CCOc1ccc(Nc2c3ccccc3nc3ccccc23)cc1 | inconclusive: 18.4 µM [falling, single point]
